≈ marks a conversion by molar mass, not a printed value. Read-outs that look alike come from different tables or passages of the source.
Experiments:
[1] = Metabolic stability in mouse liver microsomes; assay type: in vitro ADME, CD-1 mice
Experimental: Screen. […] After incubation for appropriate time (such as 5, 10, 20, 30 and 60 minutes), samples were collected, and an appropriate termination solution (glacial acetonitrile containing 200 ng/mL tolbutamide and 200 ng/mL labetalol (i.e. acetonitrile at 4° C.)) was added to stop the reaction. Sample treatment (n=1): each appropriate sample was added, vortexed and centrifuged at high speed. The supernatants were collected, and detected the substrate by HPLC-MS/MS. The peak area at the 0 min was set as 100%. The peak areas at other time points were converted to percentages of the remaining amount. The natural logarithms of the percentage of remaining amount at each time point was plotted against the incubation time, and the slope (−k) was calculated. Then, Clint (μL/min/mg) and half-life (T½, min) of the compounds were calculated following the equation: Inherent clearance rate (Clint)=(k*Volume of incubation solution)/Mass of liver microsomes.

[2] = Pharmacokinetic (PK) assay in mice; assay type: in vivo; conditions: CD-1 mice; for AUC(0-t): read-out: AUC0-24 h
Experimental: The PK of each compound was determined as follows: 6 CD-1 mice (obtained from Shanghai Lingchang Biotechnology Co., Ltd.) were divided into two groups, 3 mice in each group. […] Blood samples were collected from saphenous vein of lower leg in each group at 0, 0.083, 0.25, 0.5, 1, 2, 4, 6, 8 and 24 h after administration. Approximately 40 μL of the blood samples were collected in anticoagulant tubes containing EDTA-K2. Immediately after collection, the tubes were inverted at least 5 times to ensure adequate mixing, and then placed on ice. The blood samples collected at each time point were centrifuged at 4° C., 8000 rpm for 5 minutes to obtain plasma. Another 1.5 mL centrifuge tube was marked with the compound name, animal number, and time point, and the plasma was transferred to this tube. The plasma was stored at −80° C. until analysis.
Compound concentrations in plasma were determined by UPLC-MS/MS method, and the pharmacokinetic parameters were calculated by Phoenix WinNolin 6.4 pharmacokinetic software on the obtained data.

physchem = conditions: pH 6.5, fassif, thermodynamic from solid

SMILES: C[C@@H]1COCCN1c1cc(-c2ccnn2C)c2ccnc(-c3ccn[nH]3)c2n1 [BAY-1895344, reference compound]
- half-life at 1 μM ([1]; CD-1, 1 μM compound): 25.1 min
- microsomal CLint at 1 μM ([1]; CD-1, read-out: CLint(mic)): 55.1 µL/min/mg
- Remain % (T = 60 min) ([1]; T = 60 min): 17.0%
- CL_obs ([2]; IV dose 1 mg/kg): 36.3 mL/min/kg
- half-life ([2]; mouse, plasma, IV dose 1 mg/kg): 167 min
- half-life ([2]; mouse, plasma, Po dose 5 mg/kg): 133 min
- C0 ([2]; mouse, IV dose 1 mg/kg, plasma): 764 ng/mL
- AUC(0-t) ([2]; mouse, IV dose 1 mg/kg, plasma): 445 ng·h/mL
- Cmax ([2]; mouse, Po dose 5 mg/kg, plasma): 526 ng/mL
- AUC(0-t) ([2]; mouse, Po dose 5 mg/kg, plasma): 704 ng·h/mL
- solubility (physchem): 33.4 µg/mL (≈ 89 µM)

Reference: US20240294550A1, “8-OXA-3-AZABICYCLO[3.2.1]OCTANE COMPOUNDS OR SALT THEREOF, AND PREPARATION METHOD AND USE THEREOF” (LITTDD MEDICINES LTD, priority 2021, published 2024)
